{"source": "patent US7767881B2", "about": "“Utilization of histamine receptor h3 gene participating in body weight or food intake control” (priority 2001, dated 2010)", "origin": "cited, not measured here", "tested_on": "histamine neuron"}
{"compound": "CN1C(=O)CN=C(c2ccccc2)c2cc(Cl)ccc21", "note": "[diazepam]", "values": [{"measurement": "histamine neuron metabolic turnover", "value": "reduce histamine neuron metabolic turnover"}]}
